The list shows a part of the results.
compound: C1=CC=C(C=C1)[C@H](COC2=CC3=C(C=C2)NC(=O)N3)NC(=O)C4=CC=CN(C4=O)CC5=CC(=C(C=C5)F)F; assay: log2 fold change, soluble protein after heating vs DMSO (PISA); higher = thermal stabilisation; K562 lysate, 10 uM; active = over 0.2 and 3.5 SD of the protein, either way, in both replicates (recomputed)
In short: (§1)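 To prepare the extract, K562 pellets were dounce-homogenised in PBS pH 7.4 with 1 mM MgCl2, giving crude material at 1 mg/mL protein. This was treated with 10 μM compound for 30 min, then heated in aliquots for 3 min over 48°C-58°C before pooling and addition of NP-40 to 0.5% at 4°C. Centrifugation at 21,000xg for 90 min left soluble protein in the supernatant, which TMTpro 16plex LC-MS/MS quantified with equalised channel sums. Results are log-two fold changes in thermal stability compared with solvent controls, from duplicates.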

The chains behind the UniProt entries cited, without tags or fusion partners. Where a name states a change or a piece, a line headed by the entry shows the natural chain unless it says otherwise.
UniProt P04921: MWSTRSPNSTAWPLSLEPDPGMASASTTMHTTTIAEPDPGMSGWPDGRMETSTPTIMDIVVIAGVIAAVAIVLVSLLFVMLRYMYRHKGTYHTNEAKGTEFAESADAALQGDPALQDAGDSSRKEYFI
UniProt Q96CS2: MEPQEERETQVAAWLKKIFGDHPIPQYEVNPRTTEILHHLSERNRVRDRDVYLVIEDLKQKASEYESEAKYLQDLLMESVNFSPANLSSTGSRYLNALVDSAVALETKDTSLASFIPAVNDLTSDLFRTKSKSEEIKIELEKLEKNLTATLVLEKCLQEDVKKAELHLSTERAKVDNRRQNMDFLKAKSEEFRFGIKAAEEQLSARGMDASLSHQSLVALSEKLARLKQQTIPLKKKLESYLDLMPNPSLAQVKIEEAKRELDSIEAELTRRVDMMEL
UniProt Q9BT25: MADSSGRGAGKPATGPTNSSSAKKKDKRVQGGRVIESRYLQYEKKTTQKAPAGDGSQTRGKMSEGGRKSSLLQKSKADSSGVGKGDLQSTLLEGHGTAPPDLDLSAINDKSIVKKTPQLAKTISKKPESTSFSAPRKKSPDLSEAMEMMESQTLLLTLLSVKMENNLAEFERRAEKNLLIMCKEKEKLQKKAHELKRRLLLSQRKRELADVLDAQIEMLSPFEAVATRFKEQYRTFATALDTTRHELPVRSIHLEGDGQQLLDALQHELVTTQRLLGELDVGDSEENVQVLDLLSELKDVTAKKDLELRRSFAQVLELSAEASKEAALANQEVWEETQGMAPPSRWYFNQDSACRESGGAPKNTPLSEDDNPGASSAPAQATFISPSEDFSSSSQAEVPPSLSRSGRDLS
UniProt Q8WW33: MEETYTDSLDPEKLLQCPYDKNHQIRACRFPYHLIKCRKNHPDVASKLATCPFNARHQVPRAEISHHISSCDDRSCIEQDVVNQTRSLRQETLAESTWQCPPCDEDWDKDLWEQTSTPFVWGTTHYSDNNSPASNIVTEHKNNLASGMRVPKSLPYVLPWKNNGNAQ
UniProt Q9H583: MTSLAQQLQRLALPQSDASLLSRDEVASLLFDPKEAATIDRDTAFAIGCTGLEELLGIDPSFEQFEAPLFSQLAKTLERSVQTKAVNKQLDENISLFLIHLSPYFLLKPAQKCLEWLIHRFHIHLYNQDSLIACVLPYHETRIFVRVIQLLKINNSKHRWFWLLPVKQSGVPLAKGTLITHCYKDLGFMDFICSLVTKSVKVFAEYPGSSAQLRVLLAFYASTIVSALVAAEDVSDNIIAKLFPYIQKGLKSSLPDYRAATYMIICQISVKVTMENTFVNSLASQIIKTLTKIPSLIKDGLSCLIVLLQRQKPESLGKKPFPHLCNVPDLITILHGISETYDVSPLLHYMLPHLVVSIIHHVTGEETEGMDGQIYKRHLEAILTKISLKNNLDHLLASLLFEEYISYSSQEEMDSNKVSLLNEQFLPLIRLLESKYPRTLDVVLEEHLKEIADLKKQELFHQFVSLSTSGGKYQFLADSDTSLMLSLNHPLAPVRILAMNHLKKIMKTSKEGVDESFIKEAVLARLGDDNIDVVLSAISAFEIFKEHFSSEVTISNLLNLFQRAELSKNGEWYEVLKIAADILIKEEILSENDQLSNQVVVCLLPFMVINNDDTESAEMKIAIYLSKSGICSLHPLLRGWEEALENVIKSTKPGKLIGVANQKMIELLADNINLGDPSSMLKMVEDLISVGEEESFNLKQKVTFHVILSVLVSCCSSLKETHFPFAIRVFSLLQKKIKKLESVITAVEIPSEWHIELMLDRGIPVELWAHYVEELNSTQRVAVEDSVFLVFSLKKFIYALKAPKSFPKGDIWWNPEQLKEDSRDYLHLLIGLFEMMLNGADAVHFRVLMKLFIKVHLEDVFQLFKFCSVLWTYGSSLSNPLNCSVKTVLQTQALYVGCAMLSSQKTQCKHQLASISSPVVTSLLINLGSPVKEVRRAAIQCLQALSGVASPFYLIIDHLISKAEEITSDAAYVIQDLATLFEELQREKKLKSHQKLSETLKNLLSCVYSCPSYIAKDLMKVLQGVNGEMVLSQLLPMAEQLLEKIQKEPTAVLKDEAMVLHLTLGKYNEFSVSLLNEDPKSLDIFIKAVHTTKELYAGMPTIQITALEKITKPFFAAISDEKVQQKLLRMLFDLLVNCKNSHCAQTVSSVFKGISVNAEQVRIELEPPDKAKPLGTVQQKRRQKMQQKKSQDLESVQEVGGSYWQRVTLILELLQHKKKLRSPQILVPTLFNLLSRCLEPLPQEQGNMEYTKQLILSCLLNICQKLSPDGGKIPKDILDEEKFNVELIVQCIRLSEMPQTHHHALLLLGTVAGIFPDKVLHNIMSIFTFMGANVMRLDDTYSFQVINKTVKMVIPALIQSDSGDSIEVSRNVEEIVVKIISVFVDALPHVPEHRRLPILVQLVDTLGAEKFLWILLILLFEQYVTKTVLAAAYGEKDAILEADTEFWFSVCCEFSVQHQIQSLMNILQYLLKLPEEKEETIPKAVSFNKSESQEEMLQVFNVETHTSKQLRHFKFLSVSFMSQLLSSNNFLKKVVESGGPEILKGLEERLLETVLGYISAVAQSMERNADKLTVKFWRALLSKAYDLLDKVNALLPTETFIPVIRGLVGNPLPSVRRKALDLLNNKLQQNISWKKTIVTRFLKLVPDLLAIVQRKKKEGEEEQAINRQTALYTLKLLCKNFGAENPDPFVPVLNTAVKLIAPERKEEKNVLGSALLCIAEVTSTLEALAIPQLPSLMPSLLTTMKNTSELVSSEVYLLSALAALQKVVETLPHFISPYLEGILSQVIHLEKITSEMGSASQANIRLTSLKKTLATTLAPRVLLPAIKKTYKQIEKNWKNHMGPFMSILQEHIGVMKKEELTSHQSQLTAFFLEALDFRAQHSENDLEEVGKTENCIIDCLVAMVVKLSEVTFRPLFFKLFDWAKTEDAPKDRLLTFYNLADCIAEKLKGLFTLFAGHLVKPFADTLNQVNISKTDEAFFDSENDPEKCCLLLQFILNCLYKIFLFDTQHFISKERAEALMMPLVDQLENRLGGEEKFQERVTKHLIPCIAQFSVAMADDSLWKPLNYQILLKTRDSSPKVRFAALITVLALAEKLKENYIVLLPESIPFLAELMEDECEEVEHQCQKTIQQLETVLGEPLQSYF
UniProt P09105: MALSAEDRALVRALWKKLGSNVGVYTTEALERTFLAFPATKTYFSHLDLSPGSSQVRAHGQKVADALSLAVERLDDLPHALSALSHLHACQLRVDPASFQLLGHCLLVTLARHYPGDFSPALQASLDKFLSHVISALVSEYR
UniProt P49841: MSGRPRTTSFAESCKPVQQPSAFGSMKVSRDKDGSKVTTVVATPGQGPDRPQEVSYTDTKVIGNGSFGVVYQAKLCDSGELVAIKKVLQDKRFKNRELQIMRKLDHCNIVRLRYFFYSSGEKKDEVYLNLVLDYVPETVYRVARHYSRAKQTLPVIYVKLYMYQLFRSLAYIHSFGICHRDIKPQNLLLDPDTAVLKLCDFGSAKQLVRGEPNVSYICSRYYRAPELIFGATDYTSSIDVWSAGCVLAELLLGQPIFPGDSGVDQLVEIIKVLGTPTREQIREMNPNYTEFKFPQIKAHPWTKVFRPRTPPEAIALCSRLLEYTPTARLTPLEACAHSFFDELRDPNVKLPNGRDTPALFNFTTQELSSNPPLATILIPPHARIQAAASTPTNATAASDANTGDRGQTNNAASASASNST
UniProt Q9Y450, whole entry, looked up: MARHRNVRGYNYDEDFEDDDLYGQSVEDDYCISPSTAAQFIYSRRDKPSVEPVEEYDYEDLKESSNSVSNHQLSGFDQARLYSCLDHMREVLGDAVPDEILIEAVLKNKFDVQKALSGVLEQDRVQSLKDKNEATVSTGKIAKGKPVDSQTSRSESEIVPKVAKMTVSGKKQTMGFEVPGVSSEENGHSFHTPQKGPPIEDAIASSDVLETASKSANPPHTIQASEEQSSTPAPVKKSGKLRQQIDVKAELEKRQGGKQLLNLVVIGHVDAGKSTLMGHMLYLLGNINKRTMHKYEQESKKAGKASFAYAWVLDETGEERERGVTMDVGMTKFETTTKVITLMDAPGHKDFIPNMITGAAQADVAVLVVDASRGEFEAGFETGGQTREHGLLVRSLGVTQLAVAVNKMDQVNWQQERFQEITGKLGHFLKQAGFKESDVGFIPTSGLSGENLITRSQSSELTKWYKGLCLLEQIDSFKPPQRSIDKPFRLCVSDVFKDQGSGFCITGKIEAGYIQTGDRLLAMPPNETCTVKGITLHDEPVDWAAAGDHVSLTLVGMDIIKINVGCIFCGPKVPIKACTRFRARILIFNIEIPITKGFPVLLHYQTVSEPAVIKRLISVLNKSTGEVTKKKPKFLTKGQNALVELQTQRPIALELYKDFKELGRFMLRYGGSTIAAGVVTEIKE
UniProt Q4V328: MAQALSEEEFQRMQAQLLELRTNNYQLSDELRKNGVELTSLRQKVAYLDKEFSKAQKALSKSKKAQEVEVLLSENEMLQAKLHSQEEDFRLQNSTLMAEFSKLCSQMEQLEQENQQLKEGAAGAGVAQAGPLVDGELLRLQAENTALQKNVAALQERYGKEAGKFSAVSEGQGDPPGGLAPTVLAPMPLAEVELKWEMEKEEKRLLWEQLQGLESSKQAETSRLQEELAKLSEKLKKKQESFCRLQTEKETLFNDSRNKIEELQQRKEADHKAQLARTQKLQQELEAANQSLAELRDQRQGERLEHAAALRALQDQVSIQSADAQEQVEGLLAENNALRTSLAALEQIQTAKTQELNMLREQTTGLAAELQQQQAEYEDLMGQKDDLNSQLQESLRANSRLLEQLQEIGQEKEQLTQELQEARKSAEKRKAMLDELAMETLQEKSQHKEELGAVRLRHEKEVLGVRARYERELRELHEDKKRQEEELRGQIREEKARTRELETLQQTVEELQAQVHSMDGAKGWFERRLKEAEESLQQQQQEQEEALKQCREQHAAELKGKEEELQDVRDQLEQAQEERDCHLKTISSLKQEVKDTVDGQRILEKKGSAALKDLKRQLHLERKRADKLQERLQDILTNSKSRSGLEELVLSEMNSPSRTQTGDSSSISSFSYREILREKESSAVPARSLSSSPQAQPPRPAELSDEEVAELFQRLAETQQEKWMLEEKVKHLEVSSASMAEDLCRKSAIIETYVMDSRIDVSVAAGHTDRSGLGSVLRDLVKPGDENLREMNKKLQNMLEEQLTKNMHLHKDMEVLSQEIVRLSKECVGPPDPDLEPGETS
UniProt Q00403, whole entry, looked up: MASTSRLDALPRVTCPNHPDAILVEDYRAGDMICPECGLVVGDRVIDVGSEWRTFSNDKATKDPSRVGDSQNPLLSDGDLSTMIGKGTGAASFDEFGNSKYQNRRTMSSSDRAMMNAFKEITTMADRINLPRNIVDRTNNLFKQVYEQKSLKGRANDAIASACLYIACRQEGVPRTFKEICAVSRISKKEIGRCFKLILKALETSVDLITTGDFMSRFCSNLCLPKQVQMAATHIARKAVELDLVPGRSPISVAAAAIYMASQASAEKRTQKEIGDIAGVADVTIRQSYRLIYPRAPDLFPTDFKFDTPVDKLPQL
UniProt O15488: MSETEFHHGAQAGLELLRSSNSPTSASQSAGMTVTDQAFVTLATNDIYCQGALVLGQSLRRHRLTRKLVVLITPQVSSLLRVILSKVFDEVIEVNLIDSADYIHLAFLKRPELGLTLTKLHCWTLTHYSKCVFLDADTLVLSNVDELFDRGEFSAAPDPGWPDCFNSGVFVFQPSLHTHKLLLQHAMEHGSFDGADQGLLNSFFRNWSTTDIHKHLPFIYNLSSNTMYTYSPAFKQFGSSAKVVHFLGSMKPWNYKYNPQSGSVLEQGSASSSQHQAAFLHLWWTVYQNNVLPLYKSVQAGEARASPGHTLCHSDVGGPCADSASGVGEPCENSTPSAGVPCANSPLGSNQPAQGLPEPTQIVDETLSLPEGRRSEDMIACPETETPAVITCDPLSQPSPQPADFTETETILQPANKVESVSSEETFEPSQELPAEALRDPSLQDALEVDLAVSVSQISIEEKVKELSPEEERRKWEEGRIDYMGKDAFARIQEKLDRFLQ
UniProt P52657, whole entry, looked up: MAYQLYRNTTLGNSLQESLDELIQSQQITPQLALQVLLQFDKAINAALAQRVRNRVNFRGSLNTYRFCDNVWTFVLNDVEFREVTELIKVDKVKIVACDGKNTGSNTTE
UniProt P02100: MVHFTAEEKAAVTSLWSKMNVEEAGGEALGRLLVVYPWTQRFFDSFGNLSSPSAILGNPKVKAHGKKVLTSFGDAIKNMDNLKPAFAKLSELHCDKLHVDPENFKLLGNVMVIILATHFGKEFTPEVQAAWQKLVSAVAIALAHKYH
UniProt Q6PII5: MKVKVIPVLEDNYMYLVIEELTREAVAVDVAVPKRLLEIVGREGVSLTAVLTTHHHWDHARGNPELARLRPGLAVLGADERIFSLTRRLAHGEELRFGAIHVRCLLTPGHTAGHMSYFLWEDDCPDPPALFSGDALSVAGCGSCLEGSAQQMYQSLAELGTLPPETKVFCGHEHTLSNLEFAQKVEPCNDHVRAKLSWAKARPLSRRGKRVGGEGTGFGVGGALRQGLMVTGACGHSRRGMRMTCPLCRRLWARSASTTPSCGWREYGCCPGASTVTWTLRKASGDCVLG

| Target | log2 fold change |
| --- | --- |
| H1-4 (UniProt P10412) | inactive: 0.014 |
| H1-3 (UniProt P16402) | inactive: 0.019 |
| GYPC (UniProt P04921) | inactive: -0.088 |
| GSTP1 (UniProt P09211) | inactive: -0.018 |
| HAUS1 (UniProt Q96CS2) | inactive: 0 |
| GTPBP10 (UniProt A4D1E9) | inactive: 0.071 |
| HAUS8 (UniProt Q9BT25) | inactive: 0.016 |
| GTSF1 (UniProt Q8WW33) | inactive: 0.088 |
| HEATR1 (UniProt Q9H583) | inactive: -0.079 |
| H1FX (UniProt Q92522) | inactive: 0.035 |
| HBQ1 (UniProt P09105) | inactive: 0.073 |
| GTF3A (UniProt Q92664) | inactive: 0.006 |
| HDGFL2 isoform 2 (UniProt Q7Z4V5) | inactive: 0.051 |
| GSK3B isoform 2 (UniProt P49841) | inactive: 0.036 |
| HBS1L isoform 2 (UniProt Q9Y450) | inactive: 0.076 |
| HDDC2 (UniProt Q7Z4H3) | inactive: 0.011 |
| HBS1L (UniProt Q9Y450) | inactive: 0.037 |
| GRIPAP1 (UniProt Q4V328) | inactive: 0.007 |
| H3C1 (UniProt P68431) | inactive: 0.328 |
| GTF2B (UniProt Q00403) | inactive: -0.049 |

| Target | log2 fold change |
| --- | --- |
| GSS (UniProt P48637) | inactive: 0.012 |
| GYG2 (UniProt O15488) | inactive: 0.031 |
| GSPT2 (UniProt Q8IYD1) | inactive: -0.013 |
| HABP4 (UniProt Q5JVS0) | inactive: 0.198 |
| GTF2A2 (UniProt P52657) | inactive: 0.018 |
| UniProt H0YHG0 | inactive: 0.051 |
| HDAC6 (UniProt Q9UBN7) | inactive: 0.029 |
| HACD2 (UniProt Q6Y1H2) | inactive: -0.146 |
| HDAC1 (UniProt Q13547) | inactive: -0.04 |
| GTF2H1 (UniProt P32780) | inactive: 0.006 |
| HBE1 (UniProt P02100) | inactive: 0.028 |
| HAGHL isoform 2 (UniProt Q6PII5) | inactive: 0.017 |
| HCFC2 (UniProt Q9Y5Z7) | inactive: 0.053 |
| GTF2F1 (UniProt P35269) | inactive: 0.022 |
| GTPBP3 isoform 2 (UniProt Q969Y2) | inactive: 0.03 |
| GTF2I (UniProt P78347) | inactive: -0.026 |
| GSTZ1 (UniProt G3V4T6) | inactive: 0.035 |
| GSTT1 (UniProt P30711) | inactive: -0.12 |
| HDGFL3 (UniProt Q9Y3E1) | inactive: 0.074 |

compound: CC1=C(SC2=C1C(=N[C@H](C3=NN=C(N32)C)CC(=O)N)C4=CC=C(C=C4)Cl)C; assay: as above
In short: as §1

| Target | log2 fold change |
| --- | --- |
| H1-4 (UniProt P10412) | inactive: -0.01 |
| H1-3 (UniProt P16402) | inactive: -0.005 |
| GYPC (UniProt P04921) | inactive: -0.064 |
| GSTP1 (UniProt P09211) | inactive: 0.004 |
| HAUS1 (UniProt Q96CS2) | inactive: -0.07 |
| GTPBP10 (UniProt A4D1E9) | inactive: -0.017 |
| HAUS8 (UniProt Q9BT25) | inactive: -0.029 |
| GTSF1 (UniProt Q8WW33) | inactive: -0.067 |
| HEATR1 (UniProt Q9H583) | inactive: 0.011 |
| H1FX (UniProt Q92522) | inactive: -0.034 |
| HBQ1 (UniProt P09105) | inactive: -0.03 |
| GTF3A (UniProt Q92664) | inactive: 0.017 |
| HDGFL2 isoform 2 (UniProt Q7Z4V5) | inactive: -0.014 |
| GSK3B isoform 2 (UniProt P49841) | inactive: -0.003 |
| HBS1L isoform 2 (UniProt Q9Y450) | inactive: 0.042 |
| HDDC2 (UniProt Q7Z4H3) | inactive: -0.023 |
| HBS1L (UniProt Q9Y450) | inactive: -0.015 |
| GRIPAP1 (UniProt Q4V328) | inactive: -0.005 |
| H3C1 (UniProt P68431) | inactive: -0.102 |
| GTF2B (UniProt Q00403) | inactive: 0.012 |

| Target | log2 fold change |
| --- | --- |
| GSS (UniProt P48637) | inactive: -0.017 |
| GYG2 (UniProt O15488) | inactive: 0.003 |
| GSPT2 (UniProt Q8IYD1) | inactive: 0.029 |
| HABP4 (UniProt Q5JVS0) | inactive: 0.151 |
| GTF2A2 (UniProt P52657) | inactive: -0.017 |
| UniProt H0YHG0 | inactive: 0.024 |
| HDAC6 (UniProt Q9UBN7) | inactive: 0.036 |
| HACD2 (UniProt Q6Y1H2) | inactive: 0.251 |
| HDAC1 (UniProt Q13547) | inactive: 0.02 |
| GTF2H1 (UniProt P32780) | inactive: -0.035 |
| HBE1 (UniProt P02100) | inactive: -0.071 |
| HAGHL isoform 2 (UniProt Q6PII5) | inactive: 0.001 |
| HCFC2 (UniProt Q9Y5Z7) | inactive: 0.157 |
| GTF2F1 (UniProt P35269) | inactive: 0.044 |
| GTPBP3 isoform 2 (UniProt Q969Y2) | inactive: -0.013 |
| GTF2I (UniProt P78347) | inactive: 0 |
| GSTZ1 (UniProt G3V4T6) | inactive: 0.002 |
| GSTT1 (UniProt P30711) | inactive: -0.017 |
| HDGFL3 (UniProt Q9Y3E1) | inactive: -0.049 |

Source: the supplement of paper PMC10849652
